This is one part of the list. Repeats are few or missing, and single values can be far off.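 Cells were imaged in 1,536-well plates, and nuclei stained with an antibody against cleaved PARP were counted against all DNA-stained nuclei to give the apoptosis fraction. Screening doses were chosen to leave most cells alive, and resting and induced cleaved-PARP levels differ strongly between cell lines.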
Columns and labels:
Experiment in all cases: cleaved PARP positive nuclei fraction relative to DMSO control; melanoma cells; higher = more apoptosis
Settings in all cases: library dose: low library concentration; 72 h
MZ2-MEL = test system: MZ2-MEL
MeWo = test system: MeWo
RPMI7951 = test system: RPMI7951
RVH-421 = test system: RVH-421
SkMel28 = test system: SkMel28
SkMel2 = test system: SkMel2
SkMel30 = test system: SkMel30
SkMel5 = test system: SkMel5
UACC257 = test system: UACC257
UACC62 = test system: UACC62
WM115 = test system: WM115
WM1716 = test system: WM1716
WM1745 = test system: WM1745
WM3526 = test system: WM3526
WM3619 = test system: WM3619
WM451Lu = test system: WM451Lu

CCCS(=O)(=O)Nc1ccc(F)c(C(=O)c2c[nH]c3ncc(Cl)cc23)c1F + O=c1cc(-c2cccc3c2Sc2ccccc2S3)oc(N2CCOCC2)c1 [KU55933] (first compound 0.08 µM, partner dose 1 µM)
cleaved PARP positive nuclei fraction (MZ2-MEL): 69.3% | cleaved PARP positive nuclei fraction (MeWo): 59.8% | cleaved PARP positive nuclei fraction (RPMI7951): 57.6% | cleaved PARP positive nuclei fraction (RVH-421): 93.9% | cleaved PARP positive nuclei fraction (SkMel28): 105% | cleaved PARP positive nuclei fraction (SkMel2): 101% | cleaved PARP positive nuclei fraction (SkMel30): 203% | cleaved PARP positive nuclei fraction (SkMel5): 67.1% | cleaved PARP positive nuclei fraction (UACC257): 114% | cleaved PARP positive nuclei fraction (UACC62): 170% | cleaved PARP positive nuclei fraction (WM115): 150% | cleaved PARP positive nuclei fraction (WM1716): 31.3% | cleaved PARP positive nuclei fraction (WM1745): 90.5% | cleaved PARP positive nuclei fraction (WM3526): 115% | cleaved PARP positive nuclei fraction (WM3619): 129% | cleaved PARP positive nuclei fraction (WM451Lu): 143%

Cc1cc(Nc2cc(N3CCN(C)CC3)nc(/C=C/c3ccccc3)n2)n[nH]1 + O=C(Nc1cccc(Cl)c1)Nc1ncc(CCNc2ncnc3ccsc23)s1 [SNS314] (first compound 0.04 µM, partner dose 0.0008 µM)
cleaved PARP positive nuclei fraction (MZ2-MEL): 66.9% | cleaved PARP positive nuclei fraction (MeWo): 150% | cleaved PARP positive nuclei fraction (RPMI7951): 53.3% | cleaved PARP positive nuclei fraction (RVH-421): 85.3% | cleaved PARP positive nuclei fraction (SkMel28): 76.7% | cleaved PARP positive nuclei fraction (SkMel2): 116% | cleaved PARP positive nuclei fraction (SkMel30): 72% | cleaved PARP positive nuclei fraction (SkMel5): 72.1% | cleaved PARP positive nuclei fraction (UACC257): 141% | cleaved PARP positive nuclei fraction (UACC62): 28.3% | cleaved PARP positive nuclei fraction (WM115): 154% | cleaved PARP positive nuclei fraction (WM1716): 178% | cleaved PARP positive nuclei fraction (WM1745): 107% | cleaved PARP positive nuclei fraction (WM3526): 63.9% | cleaved PARP positive nuclei fraction (WM3619): 83% | cleaved PARP positive nuclei fraction (WM451Lu): 87.4%

CC(C)C[C@H](NC(=O)[C@H](Cc1ccccc1)NC(=O)c1cnccn1)B(O)O [Bortezomib] + Cc1cc(N2CCOCC2)cc2[nH]c(-c3c(NC[C@@H](O)c4cccc(Cl)c4)cc[nH]c3=O)nc12 [BMS536924] (first compound 0.001 µM, partner dose 0.2 µM)
cleaved PARP positive nuclei fraction (MZ2-MEL): 185% | cleaved PARP positive nuclei fraction (MeWo): 121% | cleaved PARP positive nuclei fraction (RPMI7951): 92.6% | cleaved PARP positive nuclei fraction (RVH-421): 201% | cleaved PARP positive nuclei fraction (SkMel28): 74.7% | cleaved PARP positive nuclei fraction (SkMel2): 52.2% | cleaved PARP positive nuclei fraction (SkMel30): 87.9% | cleaved PARP positive nuclei fraction (SkMel5): 288% | cleaved PARP positive nuclei fraction (UACC257): 147% | cleaved PARP positive nuclei fraction (UACC62): 184% | cleaved PARP positive nuclei fraction (WM115): 59.9% | cleaved PARP positive nuclei fraction (WM1716): 688% | cleaved PARP positive nuclei fraction (WM1745): 191% | cleaved PARP positive nuclei fraction (WM3526): 64.1% | cleaved PARP positive nuclei fraction (WM3619): 650% | cleaved PARP positive nuclei fraction (WM451Lu): 70.5%

C[C@@H](Oc1cc(-c2cnn(C3CCNCC3)c2)cnc1N)c1c(Cl)ccc(F)c1Cl [Crizotinib] + OCCn1cc(-c2cnc3nnn(Cc4ccc5ncccc5c4)c3n2)cn1 [PF04217903] (first compound 0.2 µM, partner dose 1 µM)
cleaved PARP positive nuclei fraction (MZ2-MEL): 133% | cleaved PARP positive nuclei fraction (MeWo): 79.3% | cleaved PARP positive nuclei fraction (RPMI7951): 100% | cleaved PARP positive nuclei fraction (RVH-421): 24.4% | cleaved PARP positive nuclei fraction (SkMel28): 36.9% | cleaved PARP positive nuclei fraction (SkMel2): 144% | cleaved PARP positive nuclei fraction (SkMel30): 78.9% | cleaved PARP positive nuclei fraction (SkMel5): 99.6% | cleaved PARP positive nuclei fraction (UACC257): 57.5% | cleaved PARP positive nuclei fraction (UACC62): 76.7% | cleaved PARP positive nuclei fraction (WM115): 61.5% | cleaved PARP positive nuclei fraction (WM1716): 81.1% | cleaved PARP positive nuclei fraction (WM1745): 98.2% | cleaved PARP positive nuclei fraction (WM3526): 206% | cleaved PARP positive nuclei fraction (WM3619): 84.1% | cleaved PARP positive nuclei fraction (WM451Lu): 225%

Cn1c(=O)n(-c2ccc(C(C)(C)C#N)cc2)c2c3cc(-c4cnc5ccccc5c4)ccc3ncc21 + Oc1cc(-c2nc(-c3ccccc3)[nH]c2-c2ccncc2)ccc1Cl [L779450] (first compound 0.004 µM, partner dose 0.2 µM)
cleaved PARP positive nuclei fraction (MZ2-MEL): 83.7% | cleaved PARP positive nuclei fraction (MeWo): 307% | cleaved PARP positive nuclei fraction (RPMI7951): 150% | cleaved PARP positive nuclei fraction (RVH-421): 129% | cleaved PARP positive nuclei fraction (SkMel28): 118% | cleaved PARP positive nuclei fraction (SkMel2): 102% | cleaved PARP positive nuclei fraction (SkMel30): 56.1% | cleaved PARP positive nuclei fraction (SkMel5): 197% | cleaved PARP positive nuclei fraction (UACC257): 124% | cleaved PARP positive nuclei fraction (UACC62): 462% | cleaved PARP positive nuclei fraction (WM115): 428% | cleaved PARP positive nuclei fraction (WM1716): 189% | cleaved PARP positive nuclei fraction (WM1745): 105% | cleaved PARP positive nuclei fraction (WM3526): 265% | cleaved PARP positive nuclei fraction (WM3619): 116% | cleaved PARP positive nuclei fraction (WM451Lu): 66.9%

C=C(c1ccc(C(=O)O)cc1)c1cc2c(cc1C)C(C)(C)CCC2(C)C [Bexarotene] + CC(C)(C)c1cnc(CSc2cnc(NC(=O)C3CCNCC3)s2)o1 [SNS-032] (first compound 2 µM, partner dose 0.01 µM)
cleaved PARP positive nuclei fraction (MZ2-MEL): 119% | cleaved PARP positive nuclei fraction (MeWo): 108% | cleaved PARP positive nuclei fraction (RPMI7951): 320% | cleaved PARP positive nuclei fraction (RVH-421): 68.3% | cleaved PARP positive nuclei fraction (SkMel28): 77.7% | cleaved PARP positive nuclei fraction (SkMel2): 82% | cleaved PARP positive nuclei fraction (SkMel30): 67.9% | cleaved PARP positive nuclei fraction (SkMel5): 78.1% | cleaved PARP positive nuclei fraction (UACC257): 94.2% | cleaved PARP positive nuclei fraction (UACC62): 68.1% | cleaved PARP positive nuclei fraction (WM115): 57.5% | cleaved PARP positive nuclei fraction (WM1716): 46.8% | cleaved PARP positive nuclei fraction (WM1745): 162% | cleaved PARP positive nuclei fraction (WM3526): 121% | cleaved PARP positive nuclei fraction (WM3619): 90.6% | cleaved PARP positive nuclei fraction (WM451Lu): 55.5%

Nc1nc(F)nc2c1ncn2[C@@H]1O[C@H](CO)[C@@H](O)[C@@H]1O [fludarabine] + CC(C)(C)c1cnc(CSc2cnc(NC(=O)C3CCNCC3)s2)o1 [SNS-032] (first compound 0.2 µM, partner dose 0.01 µM)
cleaved PARP positive nuclei fraction (MZ2-MEL): 85% | cleaved PARP positive nuclei fraction (MeWo): 902% | cleaved PARP positive nuclei fraction (RPMI7951): 134% | cleaved PARP positive nuclei fraction (RVH-421): 198% | cleaved PARP positive nuclei fraction (SkMel28): 119% | cleaved PARP positive nuclei fraction (SkMel2): 1210% | cleaved PARP positive nuclei fraction (SkMel30): 3040% | cleaved PARP positive nuclei fraction (SkMel5): 383% | cleaved PARP positive nuclei fraction (UACC257): 78.5% | cleaved PARP positive nuclei fraction (UACC62): 25.5% | cleaved PARP positive nuclei fraction (WM115): 166% | cleaved PARP positive nuclei fraction (WM1716): 88.4% | cleaved PARP positive nuclei fraction (WM1745): 104% | cleaved PARP positive nuclei fraction (WM3526): 222% | cleaved PARP positive nuclei fraction (WM3619): 96.1% | cleaved PARP positive nuclei fraction (WM451Lu): 800%

C=C(c1ccc(C(=O)O)cc1)c1cc2c(cc1C)C(C)(C)CCC2(C)C [Bexarotene] + Oc1cc(-c2nc(-c3ccccc3)[nH]c2-c2ccncc2)ccc1Cl [L779450] (first compound 2 µM, partner dose 0.2 µM)
cleaved PARP positive nuclei fraction (MZ2-MEL): 90.9% | cleaved PARP positive nuclei fraction (MeWo): 72.7% | cleaved PARP positive nuclei fraction (RPMI7951): 132% | cleaved PARP positive nuclei fraction (RVH-421): 236% | cleaved PARP positive nuclei fraction (SkMel28): 83% | cleaved PARP positive nuclei fraction (SkMel2): 102% | cleaved PARP positive nuclei fraction (SkMel30): 78.4% | cleaved PARP positive nuclei fraction (SkMel5): 63.9% | cleaved PARP positive nuclei fraction (UACC257): 16.8% | cleaved PARP positive nuclei fraction (UACC62): 73.1% | cleaved PARP positive nuclei fraction (WM115): 56.5% | cleaved PARP positive nuclei fraction (WM1716): 69.6% | cleaved PARP positive nuclei fraction (WM1745): 83.3% | cleaved PARP positive nuclei fraction (WM3526): 90.2% | cleaved PARP positive nuclei fraction (WM3619): 95.7% | cleaved PARP positive nuclei fraction (WM451Lu): 46.5%

— the supplement of paper PMC4604168 (melanoma cell lines)
